Experimental data: PubChem BioAssay AID686938 (Drosophila RNAi Screening Center, 2013)

Test: 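Looking for CRAC channel components and the factors controlling them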 (primary screen)
Cell system: Drosophila S2R+ cells
Reagents: long dsRNA against Drosophila genes, about 0.25 µg dsRNA per well, roughly 10,000 cells
Duration: 5 days of knock-down before the calcium assay
Challenge: thapsigargin (SERCA pump blocker) to empty calcium stores; entry signal taken 4 min after adding it
Detection: 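Per-well fluo-4 fluorescence in two replicates, unnormalised, measured in resting cells and 4 min after store depletion by the SERCA blocker thapsigargin; ratio of the two present in few wells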
Scale: calcium entry signal: higher = stronger calcium signal after store depletion; entry to resting ratio: higher = more calcium entry relative to resting level; resting calcium signal: higher = higher resting calcium signal
Units: calcium entry signal in fluorescence units; resting calcium signal in fluorescence units
Hit rule: 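Hit if the duplicate-averaged plate z-score for entry over resting signal is under −3; wells with weak total dye signal (Fmax z < −2) or more than 5 off-targets removed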
Meaning of the calls: active = strongly reduced calcium entry; inactive = no strong reduction
In all, the deposit lists about 23,000 reagents; below is an unselected part of those that have a named target and a result. In the full data, 75 (0.33%) are marked active. 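Raw plate signals without normalisation; calls rest on plate z-scores that were not deposited; ratio present for only 364 wells.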 Entries without a mark were called inactive. Not given: the dose of the treatment.

target gene | PubChem SID | calcium entry signal, replicate 1 | calcium entry signal, replicate 2 | entry to resting ratio | resting calcium signal, replicate 1 | resting calcium signal, replicate 2
CG9988 (GeneID 43388) | SID104196379 | 4.14e7 | 5.95e7 | – | 2.19e7 | 2.66e7
CG14443 (GeneID 31595) | SID104197728 | 2.79e7 | 4.33e7 | – | 1.33e7 | 1.92e7
sinah (GeneID 39885) | SID104189702 | 3.29e7 | 5.02e7 | – | 1.72e7 | 1.78e7
sinah (GeneID 39885) | SID104201724 | 4.05e7 | 5.03e7 | – | 1.78e7 | 2.58e7
CG30394 (GeneID 37437) | SID104183866 | 3.14e7 | 4.18e7 | – | 1.54e7 | 1.85e7
CG30394 (GeneID 37437) | SID104184052 | 3.20e7 | 4.21e7 | – | 1.42e7 | 1.90e7
RpS19b (GeneID 42830) | SID104195565 | 3.50e7 | 2.68e7 | – | 1.91e7 | 1.26e7
raskol (GeneID 32754) | SID104198994 | 2.87e7 | 4.56e7 | – | 1.53e7 | 1.99e7
raskol (GeneID 32754) | SID104199523 | 2.54e7 | 3.07e7 | – | 1.45e7 | 1.40e7
raskol (GeneID 32754) | SID104199756 | 3.13e7 | 2.74e7 | – | 1.72e7 | 1.27e7
raskol (GeneID 32754) | SID104199759 | 2.17e7 | 2.19e7 | – | 1.45e7 | 1.25e7
raskol (GeneID 32754) | SID104201449 | 4.65e7 | 3.89e7 | – | 2.71e7 | 1.75e7
ppk24 (GeneID 43702) | SID104194885 | 3.29e7 | 5.88e7 | – | 1.60e7 | 2.40e7
Hand (GeneID 34379) | SID104182448 | 3.88e7 | 4.23e7 | – | 1.75e7 | 1.78e7
Drep1 (GeneID 36290) | SID104187319 | 3.29e7 | 3.82e7 | – | 1.73e7 | 1.68e7
CG14551 (GeneID 43171) | SID104194686 | 3.23e7 | 5.24e7 | – | 1.78e7 | 2.39e7
CG32856 (GeneID 318251) | SID104192916 | 2.22e7 | 3.78e7 | – | 1.10e7 | 1.59e7
CG8195 (GeneID 36725) | SID104186895 | 2.97e7 | 2.51e7 | – | 1.33e7 | 1.29e7
CG7326 (GeneID 32882) | SID104199829 | 2.55e7 | 4.08e7 | – | 2.06e7 | 1.61e7
CG13954 (GeneID 35959) | SID104186234 | 3.73e7 | 4.48e7 | – | 1.86e7 | 2.05e7
CG8870 (GeneID 41645) | SID104196244 | 2.84e7 | 3.57e7 | – | 1.46e7 | 6.58e7

The list goes on (4 carried over from the part before).
target gene | PubChem SID | calcium entry signal, replicate 1 | calcium entry signal, replicate 2 | entry to resting ratio | resting calcium signal, replicate 1 | resting calcium signal, replicate 2
CG8195 (GeneID 36725) | SID104186895 | 2.97e7 | 2.51e7 | – | 1.33e7 | 1.29e7
CG7326 (GeneID 32882) | SID104199829 | 2.55e7 | 4.08e7 | – | 2.06e7 | 1.61e7
CG13954 (GeneID 35959) | SID104186234 | 3.73e7 | 4.48e7 | – | 1.86e7 | 2.05e7
CG8870 (GeneID 41645) | SID104196244 | 2.84e7 | 3.57e7 | – | 1.46e7 | 6.58e7
CG8547 (GeneID 36586) | SID104187003 | 3.46e7 | 4.48e7 | – | 1.52e7 | 2.06e7
CG11986 (GeneID 41083) | SID104194253 | 3.40e7 | 3.42e7 | – | 1.50e7 | 1.58e7
RpS28b (GeneID 31897) | SID104198050 | 1.25e7 | 1.54e7 | – | 8.74e6 | 1.00e7
CG8891 (GeneID 33718) | SID104182912 | 3.53e7 | 2.97e7 | – | 1.70e7 | 1.57e7
pan (GeneID 43769) | SID104196968 | 2.84e7 | 3.57e7 | – | 1.30e7 | 1.50e7
pan (GeneID 43769) | SID104202005 | 3.45e7 | 3.31e7 | – | 1.88e7 | 1.47e7
CG10466 (GeneID 35268) | SID104181852 | 3.25e7 | 4.25e7 | – | 1.73e7 | 1.81e7
CR18275 (GeneID 8674032) | SID104197943 | 2.23e7 | 2.43e7 | 1.8 | 1.23e7 | 1.16e7
fray (GeneID 44233) | SID104196742 | 3.89e7 | 4.69e7 | – | 5.88e7 | 2.09e7
CG11406 (GeneID 37877) | SID104183802 | 2.55e7 | 4.04e7 | – | 1.33e7 | 1.72e7
CG11406 (GeneID 37877) | SID104183900 | 3.39e7 | 3.68e7 | – | 1.73e7 | 1.73e7
CG10300 (GeneID 42798) | SID104194017 | 4.29e7 | 4.37e7 | – | 2.18e7 | 1.99e7
CG8726 (GeneID 35758) | SID104187042 | 3.37e7 | 3.43e7 | – | 1.45e7 | 1.67e7
CG31097 (GeneID 43058) | SID104194458 | 3.49e7 | 4.56e7 | – | 1.90e7 | 2.05e7
Jon65Aiv (GeneID 38682) | SID104190436 | 2.38e7 | 4.16e7 | – | 1.20e7 | 1.81e7
ClC-a (GeneID 41428) | SID104194739 | 3.39e7 | 4.24e7 | – | 1.74e7 | 2.23e7
ClC-a (GeneID 41428) | SID104194740 | 3.14e7 | 3.92e7 | – | 1.67e7 | 2.02e7
ClC-a (GeneID 41428) | SID104195934 | 3.24e6 | 3.28e7 | – | 2.93e6 | 1.51e7
Alg3 (GeneID 37754) | SID104184492 | 3.77e7 | – | – | 1.84e7 | –
CG34028 (GeneID 3885648) | SID104197406 | 2.50e7 | 2.72e7 | – | 1.28e7 | 1.30e7
CG31106 (GeneID 318594) | SID104194447 | 3.84e7 | 6.20e7 | – | 2.01e7 | 2.49e7
CG15602 (GeneID 32533) | SID104199463 | 3.14e7 | 3.25e7 | – | 1.60e7 | 1.49e7
Prx4 (GeneID 53577) | SID104188460 | 3.98e7 | 3.48e7 | – | 2.03e7 | 1.68e7
CG30350 (GeneID 246556) | SID104187482 | 3.52e7 | 2.78e7 | – | 1.48e7 | 1.33e7
cyc (GeneID 40162) | SID104191129 | 3.13e7 | 5.35e7 | – | 1.54e7 | 2.19e7
sha (GeneID 36213) | SID104186123 | 2.98e7 | 3.18e7 | – | 1.48e7 | 1.54e7
COX8 (GeneID 40390) | SID104191606 | 3.01e7 | 4.65e7 | – | 1.45e7 | 2.07e7
TpnC73F (GeneID 39916) | SID104191099 | 2.61e7 | 4.43e7 | – | 1.47e7 | 1.80e7
qin (GeneID 42236) | SID104194574 | 4.40e7 | 4.11e7 | – | 4.72e7 | 1.86e7
qin (GeneID 42236) | SID104194577 | 4.09e7 | 4.48e7 | – | 2.88e7 | 2.14e7
TAF1C-like (GeneID 37450) | SID104183865 | 3.73e7 | – | – | 1.92e7 | –
Tcs4 (GeneID 32982) | SID104199379 | 3.14e7 | 2.46e7 | – | 1.43e7 | 1.13e7
CG4066 (GeneID 41493) | SID104195333 | 3.54e7 | 2.40e7 | – | 1.77e7 | 1.37e7
jub (GeneID 32351) | SID104199159 | 2.68e7 | 3.08e7 | – | 1.29e7 | 1.61e7
osy (GeneID 43186) | SID104194695 | 2.82e7 | 5.79e7 | – | 1.59e7 | 2.47e7
osy (GeneID 43186) | SID104195771 | 2.80e7 | 5.32e7 | – | 1.55e7 | 2.48e7
osy (GeneID 43186) | SID104195773 | 2.68e7 | 3.33e7 | – | 1.23e7 | 1.59e7
